{"source": "PubChem BioAssay AID652259 (Drosophila RNAi Screening Center, 2013)", "assay": "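Identify new Wingless signalling regulators in fly cells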 (primary screen)", "cell system": "Drosophila clone 8 imaginal disc epithelial cells", "knock-down reagent": "long dsRNA against Drosophila genes", "challenge": "pathway stimulated by co-transfected Wingless expression plasmid", "read-out": "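Firefly luciferase from a tcf-site Wingless reporter, measured alongside co-transfected Renilla luciferase that tracks transfection; pathway stimulated by a Wingless plasmid; the firefly-to-Renilla ratio is not deposited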", "direction": "firefly reporter light: higher = more Wg reporter light, before normalisation; Renilla control light: higher = more transfected or surviving cells", "active means": "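Strong candidates differ from their plate mean by at least two out of four per-plate statistical tests; weak candidates meet just one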", "meaning of the calls": "active = candidate regulator (raises or lowers reporter); inactive = not a candidate", "note": "The deposit covers about 22,000 reagents; shown is a random part of those that have a named target and a result. Over the whole deposit, 233 (1.1%) were called active. 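Light values are raw, unnormalised plate reads; the ratio scores behind the reporter calls were not deposited.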 A number with no mark means an inactive call. A plus sign joins genes that one reagent is predicted to hit. Reagent sequences are not shown. Not stated in the record: the amount of reagent, the time to read-out, the dose of the treatment."}
{"gene knocked down": "bumpel", "PubChem SID": "SID104195892", "firefly reporter light, replicate 1": 13421, "Renilla control light, replicate 1": 4074}
{"gene knocked down": "Acp76A", "PubChem SID": "SID104189457", "firefly reporter light, replicate 1": 12928, "Renilla control light, replicate 1": 4327}
{"gene knocked down": "CG13837", "PubChem SID": "SID104194479", "firefly reporter light, replicate 1": 22646, "Renilla control light, replicate 1": 19498}
{"gene knocked down": "CG14505", "PubChem SID": "SID104186268", "firefly reporter light, replicate 1": 5035, "Renilla control light, replicate 1": 2131}
{"gene knocked down": "CG8245", "PubChem SID": "SID104184693", "firefly reporter light, replicate 1": 3684, "firefly reporter light, replicate 2": 7868, "Renilla control light, replicate 1": 837, "Renilla control light, replicate 2": 2957}
{"gene knocked down": "corto", "PubChem SID": "SID104191832", "firefly reporter light, replicate 1": 3504, "Renilla control light, replicate 1": 464}
{"gene knocked down": "corto", "PubChem SID": "SID104192167", "firefly reporter light, replicate 1": 25571, "Renilla control light, replicate 1": 7949}
{"gene knocked down": "corto", "PubChem SID": "SID104201798", "firefly reporter light, replicate 1": 7.53e5, "firefly reporter light, replicate 2": 6.70e5, "Renilla control light, replicate 1": 3.12e5, "Renilla control light, replicate 2": 3.36e5}
{"gene knocked down": "teq", "PubChem SID": "SID104190090", "firefly reporter light, replicate 1": 1656, "firefly reporter light, replicate 2": 7520, "Renilla control light, replicate 1": 1549, "Renilla control light, replicate 2": 2720}
{"gene knocked down": "teq", "PubChem SID": "SID104191093", "firefly reporter light, replicate 1": 3072, "firefly reporter light, replicate 2": 6251, "Renilla control light, replicate 1": 1627, "Renilla control light, replicate 2": 2808}
{"gene knocked down": "teq", "PubChem SID": "SID104191094", "firefly reporter light, replicate 1": 2145, "firefly reporter light, replicate 2": 10976, "Renilla control light, replicate 1": 1418, "Renilla control light, replicate 2": 3301}
{"gene knocked down": "Polr2B", "PubChem SID": "SID104196623", "firefly reporter light, replicate 1": 8013, "Renilla control light, replicate 1": 1542}
{"gene knocked down": "Prosbeta4", "PubChem SID": "SID104182395", "firefly reporter light, replicate 1": 1349, "firefly reporter light, replicate 2": 3900, "Renilla control light, replicate 1": 324, "Renilla control light, replicate 2": 1410}
{"gene knocked down": "Tcs6 + PIG-P", "PubChem SID": "SID104193534", "firefly reporter light, replicate 1": 2967, "Renilla control light, replicate 1": 1648}
{"gene knocked down": "Tcs6 + PIG-P", "PubChem SID": "SID104194685", "firefly reporter light, replicate 1": 18096, "Renilla control light, replicate 1": 14713}
{"gene knocked down": "CG42237", "PubChem SID": "SID104199683", "firefly reporter light, replicate 1": 22180, "Renilla control light, replicate 1": 12915}
{"gene knocked down": "CG4789", "PubChem SID": "SID104199710", "firefly reporter light, replicate 1": 19484, "Renilla control light, replicate 1": 7789}
